Reference: PubChem BioAssay AID504847 (National Center for Advancing Translational Sciences (NCATS), 2011)
“And” between values parts separate entries of the source, which are not always exact repeats. Identical values can stand only once. In all, about 400,000 compounds went through this assay and about 3,700 (0.93%) were called active. This list was built around the results that the source calls inconclusive (neither active nor inactive); the mix of calls is not that of the screen. Calls follow the shape of the dose curve; as a rule, active = well fitted inhibition curve with a large enough effect; inconclusive = small, poorly fitted or top-dose-only effect, or another doubt; inactive = no such curve, though single readings can be large or run the other way. Potencies beside an inconclusive call are fits to weak or partial responses and may not hold up.

Protein sequences, listed by entry. Tags and fused reporters are not part of them. Lines headed by an entry give the natural chain unless they say otherwise; changes in a name come on top.
UniProt P11473: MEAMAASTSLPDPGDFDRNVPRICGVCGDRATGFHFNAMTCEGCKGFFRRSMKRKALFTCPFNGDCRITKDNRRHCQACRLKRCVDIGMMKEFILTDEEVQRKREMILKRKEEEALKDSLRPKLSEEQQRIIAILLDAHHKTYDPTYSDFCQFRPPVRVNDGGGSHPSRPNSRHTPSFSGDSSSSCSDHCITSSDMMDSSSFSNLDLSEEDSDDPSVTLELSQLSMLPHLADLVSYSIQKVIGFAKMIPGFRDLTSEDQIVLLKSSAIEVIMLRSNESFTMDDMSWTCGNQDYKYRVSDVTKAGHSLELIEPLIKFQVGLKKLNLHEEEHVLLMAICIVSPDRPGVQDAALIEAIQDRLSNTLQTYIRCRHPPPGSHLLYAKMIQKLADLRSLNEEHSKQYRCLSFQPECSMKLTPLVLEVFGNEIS

Target: Vitamin D3 receptor (Homo sapiens) (UniProt P11473)
Assay: Inhibitors of the vitamin D receptor (VDR): qHTS
Details: VDR-SRC2-3 peptide fluorescence polarization, 2 h; max response, negative = inhibition: active compounds read low
Procedure, shortened: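 Inhibition of the VDR/SRC2-3 peptide interaction is quantified by fluorescence polarization. Compounds (23 nl, pintool) incubate with the reagents for 2 hours at ambient room temperature.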
% is scaled to controls: 0 for no effect and ±100 for the full control effect; potency is read from the fitted curve at half-maximal effect.

Compound	Potency	max response, negative = inhibition
COc1ccccc1N1CCN(Cc2cccc(OC)c2O)CC1	inconclusive: 3.16 µM [inhibitor, full curve, poor fit]	–
Cc1ccc(-n2nc(C)c3c2OC(N)=C(C#N)C3c2ccc(F)cc2)cc1 (stereo not drawn)	inconclusive: 70.8 µM [inhibitor, single point]	–
CN1C(=O)NC(=O)/C(=C/c2ccc([N+](=O)[O-])s2)C1=O	active: 44.7 µM	–
CCOC(=O)C1CCN(/C=C2/C(=O)NC(=O)N(Cc3ccco3)C2=O)CC1	–	inactive: -4.51%
CN(C)c1c([N+](=O)[O-])cc(N2C(=O)C=CC2=O)cc1[N+](=O)[O-]	active: 15.8 µM	–
N#CC1c2ccccc2-n2nncc2CN1Cc1cc(Cl)cc(Cl)c1 (stereo not drawn)	active: 20 µM	–
C=C1C(=O)O[C@@H]2C[C@@H](C)[C@@H]3C=CC(=O)[C@@]3(C)[C@@H](O)[C@H]12	inconclusive: 39.8 µM [inhibitor, partial curve, poor fit] and inconclusive: 31.6 µM [inhibitor, full curve]	–
CCCCCc1cc(O)c2c(c1)OC(C)(C)C1CC=C(C)CC21 (stereo not drawn)	inconclusive: 39.8 µM [inhibitor, single point]	–
CCN(CC)C(=O)c1ccc(NC(=O)CCn2nc(-c3ccc(Cl)cc3)c3ccccc3c2=O)cc1	inconclusive: 44.7 µM [inhibitor, partial curve]	–
N#Cc1ccc(CN2CC[C@@]3(CCCN(C(=O)Oc4ccccc4)C3)C2)cc1	inconclusive: 89.1 µM [inhibitor, partial curve, poor fit]	–
S=P(NCCNP(=S)(N1CC1)N1CC1)(N1CC1)N1CC1	inconclusive: 56.2 µM [inhibitor, partial curve, poor fit]	–
Cc1cc(C=C(C#N)C#N)ccc1N1CCCC1	inconclusive: 89.1 µM [inhibitor, single point]	–
Cc1ccc2c(c1)C1CN(C)CCC1N2C(=O)COc1ccc(S(=O)(=O)N2CCOCC2)cc1 (stereo not drawn)	inconclusive: 100 µM [inhibitor, partial curve, poor fit]	–
O=C(O)Cn1cc(/C=C2\C(=O)NC(=O)N(c3ccc(Cl)cc3)C2=O)c2ccccc21	inconclusive: 89.1 µM [inhibitor, single point]	–
Cc1c(C(=O)c2cccc3ccccc23)c2cccc3c2n1[C@H](CN1CCOCC1)CO3	inconclusive: 89.1 µM [inhibitor, partial curve, poor fit]	–
COP(=S)(OC)Oc1ccc([N+](=O)[O-])cc1	active: 15.8 µM	–
Cc1nn(Cc2ccccc2)c(C)c1C=C1C(=O)NC(=S)NC1=O	active: 25.1 µM	–
O=C(CN1CCCC1)Nc1ccc(Cl)cc1C(=O)c1ccccc1	–	inactive: -11.4%
Cc1o[nH]c(=O)c1C[C@@H](N)C(=O)O	–	inactive: 4.16% and inactive: -21.6%

Compound	Potency	max response, negative = inhibition
CN1CCN(c2ccc(/C=C3\C(=O)NC(=S)N(c4cccc(Br)c4)C3=O)o2)CC1	inconclusive: 100 µM [inhibitor, partial curve, poor fit]	–
O=C1NC(=O)N(c2ccccc2F)C(=O)/C1=C/c1cn(CC(=O)N2CCOCC2)c2ccccc12	inconclusive: 14.1 µM [inhibitor, full curve]	–
O=C(O)COc1ccc(Br)cc1C(c1c(C(=O)O)[nH]c2ccccc12)c1c(C(=O)O)[nH]c2ccccc12	inconclusive: 56.2 µM [inhibitor, partial curve, poor fit]	–
NP(=O)(OCCCc1ccccc1)Oc1ccccc1 (stereo not drawn)	–	inactive: -17.5%
C[C@]12CCC3C(CCC4=C(Cl)C(=O)CC[C@@]43C)C1CCC2O (stereo partly drawn)	inconclusive: 70.8 µM [inhibitor, partial curve, poor fit]	–
CSc1ncc(/C=C2/C(=O)NC(=O)N(c3ccc(C)cc3)C2=O)cn1	active: 39.8 µM	–
CNCCc1nc(N)n[nH]1	–	inactive: 0.315%
Oc1cc(O)c2c(c1)OC(c1cc(O)c(O)c(O)c1)C(O)C2 (stereo not drawn)	inconclusive: 89.1 µM [inhibitor, single point]	–
O=C(N=Nc1c(O)[nH]c(=O)[nH]c1=O)C1COc2cc3ccccc3cc2O1 (stereo not drawn)	inconclusive: 12.6 µM [inhibitor, partial curve, poor fit]	–
O=C1NC(=S)NC(=O)C1C1CCCCC1	inconclusive: 89.1 µM [inhibitor, partial curve, poor fit]	–
CCN(CC)C(=O)Oc1ccc(NC(=O)N2CCOCC2)cc1	inconclusive: 11.2 µM [inhibitor, partial curve, poor fit]	–
COC(=O)c1ccc(C(c2c(C)[nH][nH]c2=O)c2c(C)[nH][nH]c2=O)cc1	inconclusive: 79.4 µM [inhibitor, partial curve, poor fit]	–
COc1ccc(-n2c(O)c(/C=C3\C=Nc4ccc(Br)cc43)c(=O)[nH]c2=O)cc1	inconclusive: 89.1 µM [inhibitor, single point]	–
CC(=O)O[C@@H]1C[C@@]2(C)C(c3ccoc3)C[C@H]3O[C@]32[C@]2(C)C(=O)C(O)=C3C(C)(C)C(=O)C=C[C@]3(C)C12 (stereo partly drawn)	active: 14.1 µM	–
CN1C(=O)C(Cc2ccccc2)C(=O)N(C)C1=O	–	inactive: -8.38%
COC(=O)C1=C(C)NC(C)=C(C(=O)NCCCN2CCC(c3ccccc3)(c3ccccc3)CC2)C1c1ccc([N+](=O)[O-])cc1 (stereo not drawn)	inconclusive: 56.2 µM [inhibitor, partial curve, poor fit]	–
C#C[C@]1(O)CC[C@H]2[C@@H]3CCC4=Cc5nc6nc7ccccc7n6cc5C[C@]4(C)[C@H]3CC[C@@]21C	inconclusive: 79.4 µM [inhibitor, partial curve]	–
C[C@]12Cc3cn4c(nc3C=C1CCC1C2CC[C@@]2(C)[C@H]1CC[C@@]2(O)C#N)nc1ccccc14 (stereo partly drawn)	inconclusive: 56.2 µM [inhibitor, partial curve, poor fit]	–
CN(C)C(CSC(N)=O)CSC(N)=O	inconclusive: 50.1 µM [inhibitor, partial curve]	–
